# Laboratory results as given in the supplement of paper PMC8728848.
# The other results are listed elsewhere or left out.
# Key:
# Assay in all cases: glycan array binding signal (z-score within array); higher = stronger binding
# Settings in all cases: glycan notation: IUPAC condensed, linker removed
# [1] = molecular target: Fuc(a1-2)Gal
# Summary of the method: (§1)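 Negative Z-scores can be read as non-binding. The Z-score is calculated within each array and then averaged across arrays of one protein sequence at different concentrations or buffers and across linkers. Arrays, 3228 in all, were curated from the Consortium for Functional Glycomics database and kept only where the protein sequence was available.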
# [2] = molecular target: Fuc(a1-2)Gal(b1-3)GalNAc
# Summary of the method: as §1
# [3] = molecular target: Fuc(a1-2)Gal(b1-3)GalNAc(a1-3)[Fuc(a1-2)]Gal(b1-4)Glc
# Summary of the method: as §1
# [4] = molecular target: Fuc(a1-2)Gal(b1-3)GalNAc(a1-3)[Fuc(a1-2)]Gal(b1-4)GlcNAc
# Summary of the method: as §1
# [5] = molecular target: Fuc(a1-2)Gal(b1-3)GalNAc(b1-3)Gal
# Summary of the method: as §1
# [6] = molecular target: Fuc(a1-2)Gal(b1-3)GalNAc(b1-3)Gal(a1-4)Gal(b1-4)Glc
# Summary of the method: as §1
# [7] = molecular target: Fuc(a1-2)Gal(b1-3)GalNAc(b1-4)[Neu5Ac(a2-3)]Gal(b1-4)Glc
# Summary of the method: as §1
# [8] = molecular target: Fuc(a1-2)Gal(b1-3)GlcNAc
# Summary of the method: as §1
# [9] = molecular target: Fuc(a1-2)Gal(b1-3)GlcNAc(b1-2)Man(a1-3)[Fuc(a1-2)Gal(b1-3)GlcNAc(b1-2)Man(a1-6)]Man(b1-4)GlcNAc(b1-4)GlcNAc
# Summary of the method: as §1
# [10] = molecular target: Fuc(a1-2)Gal(b1-3)GlcNAc(b1-2)Man(a1-3)[Fuc(a1-2)Gal(b1-3)GlcNAc(b1-2)Man(a1-6)]Man(b1-4)GlcNAc(b1-4)[Fuc(a1-6)]GlcNAc
# Summary of the method: as §1
# [11] = molecular target: Fuc(a1-2)Gal(b1-3)GlcNAc(b1-3)Gal(b1-4)Glc
# Summary of the method: as §1
# [12] = molecular target: Fuc(a1-2)Gal(b1-3)GlcNAc(b1-3)GalNAc
# Summary of the method: as §1
# [13] = molecular target: Fuc(a1-2)Gal(b1-3)GlcNAc(b1-3)[Fuc(a1-2)Gal(b1-3)GlcNAc(b1-6)]GalNAc
# Summary of the method: as §1
# [14] = molecular target: Fuc(a1-2)Gal(b1-3)GlcNAc(b1-3)[Gal(b1-4)GlcNAc(b1-6)]Gal(b1-4)Glc
# Summary of the method: as §1
# [15] = molecular target: Fuc(a1-2)Gal(b1-3)GlcNAc(b1-3)[Neu5Ac(a2-6)Gal(b1-4)GlcNAc(b1-6)]Gal(b1-4)Glc
# Summary of the method: as §1
# [16] = molecular target: Fuc(a1-2)Gal(b1-3)GlcNAc6S
# Summary of the method: as §1
# [17] = molecular target: Fuc(a1-2)Gal(b1-3)[Fuc(a1-4)]GlcNAc
# Summary of the method: as §1
# [18] = molecular target: Fuc(a1-2)Gal(b1-3)[Fuc(a1-4)]GlcNAc(b1-2)Man(a1-3)[Fuc(a1-2)Gal(b1-3)[Fuc(a1-4)]GlcNAc(b1-2)Man(a1-3)]Man(b1-4)GlcNAc(b1-4)GlcNAc
# Summary of the method: as §1
# [19] = molecular target: Fuc(a1-2)Gal(b1-3)[Fuc(a1-4)]GlcNAc(b1-2)Man(a1-3)[Fuc(a1-2)Gal(b1-3)[Fuc(a1-4)]GlcNAc(b1-2)Man(a1-6)]Man(b1-4)GlcNAc(b1-4)[Fuc(a1-6)]GlcNAc(b1-4)[Fuc(a1-6)]GlcNAc
# Summary of the method: as §1
# [20] = molecular target: Fuc(a1-2)Gal(b1-3)[Fuc(a1-4)]GlcNAc(b1-3)[Fuc(a1-3)[Gal(b1-4)]GlcNAc(b1-6)]Gal(b1-4)Glc
# Summary of the method: as §1
# [21] = molecular target: Fuc(a1-2)Gal(b1-3)[Fuc(a1-4)]GlcNAc(b1-3)[Gal(b1-4)GlcNAc(b1-6)]Gal(b1-4)Glc
# Summary of the method: as §1
# [22] = molecular target: Fuc(a1-2)Gal(b1-4)Glc
# Summary of the method: as §1
# [23] = molecular target: Fuc(a1-2)Gal(b1-4)Glc6S
# Summary of the method: as §1
# [24] = molecular target: Fuc(a1-2)Gal(b1-4)GlcNAc
# Summary of the method: as §1
# [25] = molecular target: Fuc(a1-2)Gal(b1-4)GlcNAc(b1-2)Man
# Summary of the method: as §1
# [26] = molecular target: Fuc(a1-2)Gal(b1-4)GlcNAc(b1-2)Man(a1-3)[Fuc(a1-2)Gal(b1-4)GlcNAc(b1-2)Man(a1-6)]Man(b1-4)GlcNAc(b1-4)GlcNAc
# Summary of the method: as §1
# [27] = molecular target: Fuc(a1-2)Gal(b1-4)GlcNAc(b1-2)Man(a1-3)[Fuc(a1-2)Gal(b1-4)GlcNAc(b1-2)Man(a1-6)]Man(b1-4)GlcNAc(b1-4)[Fuc(a1-6)]GlcNAc
# Summary of the method: as §1
# [28] = molecular target: Fuc(a1-2)Gal(b1-4)GlcNAc(b1-2)[Fuc(a1-2)Gal(b1-4)GlcNAc(b1-4)]Man(a1-3)[Fuc(a1-2)Gal(b1-4)GlcNAc(b1-2)Man(a1-6)]Man(b1-4)GlcNAc(b1-4)GlcNAc
# Summary of the method: as §1
# [29] = molecular target: Fuc(a1-2)Gal(b1-4)GlcNAc(b1-3)Gal(b1-4)GlcNAc
# Summary of the method: as §1
# [30] = molecular target: Fuc(a1-2)Gal(b1-4)GlcNAc(b1-3)Gal(b1-4)GlcNAc(b1-2)Man(a1-3)[Fuc(a1-2)Gal(b1-4)GlcNAc(b1-3)Gal(b1-4)GlcNAc(b1-2)Man(a1-6)]Man(b1-4)GlcNAc(b1-4)GlcNAc
# Summary of the method: as §1
binder,measurement,setting,value
Pbx1CASH domain (Cryptococcus neoformans) (protein) MDETKPLWGNPRADGISLACKDSIVERNVVYDATDGAIVLFGSAGSTVKNNHVYARTRVILGGINLVDYEPWDGDYTNVKVHHNHLYALGRYFKVGIVIGPASWSDDTESVVHSASVTDNEFSGGYWGYGIVVASAKNFEVLRNKVIWDGEQGVARFSGVPGS,glycan array binding signal (z-score),[1],-0.416
same,glycan array binding signal (z-score),[2],-0.606
same,glycan array binding signal (z-score),[3],0.693
same,glycan array binding signal (z-score),[4],0.739
same,glycan array binding signal (z-score),[5],1.37
same,glycan array binding signal (z-score),[6],0.581
same,glycan array binding signal (z-score),[7],-0.348
same,glycan array binding signal (z-score),[8],-0.352
same,glycan array binding signal (z-score),[9],-0.517
same,glycan array binding signal (z-score),[10],-0.339
same,glycan array binding signal (z-score),[11],-0.024
same,glycan array binding signal (z-score),[12],0.513
same,glycan array binding signal (z-score),[13],-0.799
same,glycan array binding signal (z-score),[14],0.324
same,glycan array binding signal (z-score),[15],-0.317
same,glycan array binding signal (z-score),[16],0.576
same,glycan array binding signal (z-score),[17],-0.689
same,glycan array binding signal (z-score),[18],-0.194
same,glycan array binding signal (z-score),[19],-0.153
same,glycan array binding signal (z-score),[20],-0.302
same,glycan array binding signal (z-score),[21],-0.554
same,glycan array binding signal (z-score),[22],-0.337
same,glycan array binding signal (z-score),[23],0.107
same,glycan array binding signal (z-score),[24],-0.647
same,glycan array binding signal (z-score),[25],0.929
same,glycan array binding signal (z-score),[26],0.333
same,glycan array binding signal (z-score),[27],-0.411
same,glycan array binding signal (z-score),[28],-0.526
same,glycan array binding signal (z-score),[29],-0.617
same,glycan array binding signal (z-score),[30],-0.289

# Some of the entries so far, as tab-separated lines:
binder	measurement	setting	value
Pbx1CASH domain (Cryptococcus neoformans) (protein) MDETKPLWGNPRADGISLACKDSIVERNVVYDATDGAIVLFGSAGSTVKNNHVYARTRVILGGINLVDYEPWDGDYTNVKVHHNHLYALGRYFKVGIVIGPASWSDDTESVVHSASVTDNEFSGGYWGYGIVVASAKNFEVLRNKVIWDGEQGVARFSGVPGS	glycan array binding signal (z-score)	[21]	-0.554
same	glycan array binding signal (z-score)	[22]	-0.337
